These are yes or no findings as the source states them, for the method shown. A result given as binding can be weak or reduced; the word gives no strength. For part of these data: Where a sequence is shown, tags or fusion partners need not be part of it. For part of these data: Binding seen in cells or lysates may run through a third protein.

In assay [1] the target is T1, NSF (BiFC fusion) (Arabidopsis) (UniProt Q9M0Y8).
T1 sequence: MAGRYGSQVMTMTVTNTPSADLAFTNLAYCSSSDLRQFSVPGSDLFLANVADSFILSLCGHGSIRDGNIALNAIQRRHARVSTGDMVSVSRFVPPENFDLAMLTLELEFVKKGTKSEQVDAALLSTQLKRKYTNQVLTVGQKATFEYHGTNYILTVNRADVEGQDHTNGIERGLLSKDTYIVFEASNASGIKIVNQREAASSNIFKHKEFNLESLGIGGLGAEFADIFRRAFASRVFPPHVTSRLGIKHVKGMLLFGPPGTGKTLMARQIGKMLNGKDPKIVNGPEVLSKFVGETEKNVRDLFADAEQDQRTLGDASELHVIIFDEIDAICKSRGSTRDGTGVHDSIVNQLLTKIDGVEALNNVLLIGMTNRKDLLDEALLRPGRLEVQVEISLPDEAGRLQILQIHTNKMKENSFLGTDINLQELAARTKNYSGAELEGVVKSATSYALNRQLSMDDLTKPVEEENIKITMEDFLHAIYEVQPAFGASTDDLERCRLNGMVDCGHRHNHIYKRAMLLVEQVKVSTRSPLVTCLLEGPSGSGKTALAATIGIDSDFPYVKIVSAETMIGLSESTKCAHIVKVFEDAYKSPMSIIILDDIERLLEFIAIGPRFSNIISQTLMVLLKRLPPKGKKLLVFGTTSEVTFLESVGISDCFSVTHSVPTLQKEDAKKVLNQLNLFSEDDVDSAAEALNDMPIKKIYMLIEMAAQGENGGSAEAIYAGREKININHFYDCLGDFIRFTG
Put plainly: split reporter; BiFC with YN- and YC-vectors in tobacco (Nicotiana tabacum) leaf epidermal cells, transient agrobacterium infiltration; YFP signal by CLSM.

Assay [2] deals with T2, mCherry-NSF (Arabidopsis) (UniProt Q9M0Y8).
T2 sequence: T1 sequence
Briefly: FRET or BRET; FRET between GFP-ASNAP.1 or GFP-ASNAP.2 and mCherry-NSF in transiently transformed Arabidopsis protoplasts; mCherry alone as control.

For a further assay, the target named is T3, His-NSF (Arabidopsis, UniProt Q9M0Y8 1-742).
T3 construct: Arabidopsis thaliana N-ethylmaleimide-sensitive factor (NSF), At4g04910; also called NSF-His; his-tagged NSF
T3 sequence (looked up): T1 sequence
Briefly: pull-down; in vitro pull-down; NSF-His used to pull down ASNAP.1-GST or ASNAP.2-GST; recombinant proteins from E. coli, affinity-purified; both purified.

As for ASNAP.2 (BiFC fusion) (Arabidopsis), the binding entry in assay [1] is “binds”.

In the case of GFP-ASNAP.2 (Arabidopsis), the binding result in assay [2] was “binds”.

Turning to GST-ASNAP.2 (Arabidopsis), the binding result with His-NSF is on record as “binds”.

The values above are taken from article PMC8096068, “The canonical α-SNAP is essential for gametophytic development in Arabidopsis” (PLoS Genetics, 2021).
